According to the supplement of paper PMC12009310:
Structures can show the parent of a compound that is named as a salt. ± gives the standard deviation of the averaged measurements. The list shows a part of the results. Baselines shift from plate to plate; read single values as rough.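 The cells are a mouse kidney inner medullary collecting duct line, silenced either for the ciliary gene Rpgrip1l or with a non-targeting control siRNA.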

test system: mIMCD3; experiment: robust z score of cilia incidence (% cells with single cilium) vs plate controls; higher = more ciliated cells; settings: 10 µM; 48 h; siRNA: siScr

SMILES	robust z score of cilia incidence
O=Nc1c(-c2c(O)[nH]c3ccccc23)[nH]c2ccccc12 [Indirubin-3'-oxime]	-115 ± 60
Nc1nc2ccc(OC(F)(F)F)cc2s1 [Riluzole hydrochloride]	-8.13 ± 0.11
CC(C)NCCN(C(C)C)S(=O)(=O)c1ccc(Cl)cc1Cl	-36 ± 5.6
Cc1ccccc1N1CCN(S(=O)(=O)C[C@]23CC[C@H](C[C@@H]2NC(=O)[C@@H](N)CCS(C)(=O)=O)C3(C)C)CC1 [L-368,899 hydrochloride]	-0.0671 ± 2
CC1(CN2CCC(n3c(=O)[nH]c4ccccc43)CC2)OCc2ccccc2-n2cccc21 (stereo not drawn)	-20.6 ± 21
O=C1Nc2ccc(I)cc2/C1=C/c1cc(Br)c(O)c(Br)c1	-44.9 ± 1.8
CN1CCc2cc(Cl)c(O)cc2[C@@H](c2ccccc2)C1	-3.17 ± 0.39
Nc1ncnc2n[nH]c(Nc3ccc(F)cc3)c12	0.327 ± 2.3
Cc1nn(-c2ccccc2)c(C)c1C=NN1CCN(Cc2ccccc2)CC1	-12.7 ± 5.5
O=C(Nc1ccc(C(F)(F)F)cn1)N1CCN(c2ncccc2C(F)(F)F)CC1	-7.13 ± 11
CCN(CC)CCCCNc1ncc2cc(-c3c(Cl)cccc3Cl)c(NC(=O)NC(C)(C)C)nc2n1	-69.5 ± 24
CCC(=O)NC[C@H](Cc1ccc(OCCc2nc(-c3ccccc3)oc2C)cc1)N/C(C)=C\C(=O)c1ccc(C(F)(F)F)cc1	-16.6 ± 13
OCCNCCCOc1cccc(Cl)c1Cl [2,3-DCPE hydrochloride]	-5.76 ± 2.4
CC[C@H](NC(=O)c1c(C)c(-c2ccccc2)nc2ccccc12)c1ccccc1	-2.81 ± 9.6
CCN(CC)CC1CCN(c2ncc3ncnc(Nc4ccc(F)c(Cl)c4)c3n2)CC1 [BIBU 1361 dihydrochloride]	-47.6 ± 41
COc1c(C)c2c(c(O)c1C/C=C(\C)CCC(=O)O)C(=O)OC2 [Mycophenolic acid]	-42.1 ± 11
COc1ccc(Cl)cc1C(=O)NCCc1ccc(S(=O)(=O)NC(=O)NC2CCCCC2)cc1 [Glibenclamide]	2.02 ± 1.2
CCn1c(=O)[nH]c2ccccc21	-1.63 ± 1.6
COc1ccc2c(c1)c(CC(=O)O)c(C)n2C(=O)c1ccc(Cl)cc1 [Indomethacin]	3.38 ± 4.5
COc1ccc(NS(=O)(=O)c2ccc(I)cc2)cc1N1CCN(C)CC1	-8.75 ± 9.1

SMILES	robust z score of cilia incidence
O=C(OCCN1CCOCC1)C1(c2ccccc2)CCCCC1 [PRE-084 hydrochloride]	0.565 ± 0.38
O=C1C=CC(=O)C2=C1C1c3ccccc3C2c2ccccc21	3.01 ± 2.4
CCCc1c(OCCCOc2ccc(OCC(=O)O)cc2)ccc(C(C)=O)c1O	1.36 ± 3.4
Nc1nccc(-c2ccc3noc(-c4ccc(Cl)cc4)c3c2)n1 [PIM 1 Inhibitor 2]	-1.36 ± 0.04
c1ccc(-c2n[nH]c3c2oc2ccccc23)cc1	1.01 ± 8.2
CCCCCCN(CCCCCC)C(=O)Cc1c(-c2ccc(Cl)cc2)[nH]c2ccc(Cl)cc12	-11.6 ± 3.1
Cc1nn(C)c2nc(NNC(=O)Nc3cc(Cl)nc(Cl)c3)cc(C(C)C)c12	-10.8 ± 7.6
Cc1cc(I)ccc1Nc1c(C(=O)NOCC2CC2)cc(F)c(F)c1F	-66.3 ± 15
CC1(C)O[C@@H]2[C@@H](CO[C@@]3(COS(N)(=O)=O)OC(C)(C)O[C@@H]23)O1 [Topiramate]	0.335 ± 0.22
CC/C(=C(\c1ccccc1)c1ccc(OCCN(C)C)cc1)c1ccccc1 [Tamoxifen citrate]	-47.7 ± 7.5
CC(C)Oc1cccc(-n2c(CCc3c[nH]c4ccc(Br)cc34)nc3ccccc3c2=O)c1	-21.6 ± 6.1
COc1ccccc1N1CCN(CCN2C(=O)CC3(CCCC3)CC2=O)CC1 [BMY 7378 dihydrochloride]	-7.41 ± 3.4
CCCc1c(OCC(O)COc2ccc3c(=O)cc(C(=O)O)oc3c2CCC)ccc(C(C)=O)c1O (stereo not drawn)	-0.52 ± 0.6
CCC(NC(C)C)C(O)c1ccc(O)c2[nH]c(=O)ccc12 (stereo not drawn) [Procaterol hydrochloride]	-0.371 ± 0.72
O=C(O)CCc1ccc(NCc2cccc(Oc3ccccc3)c2)cc1	-3.94 ± 6.2
C[N+](C)(C)CC[N+]1(C)Cc2c(Cl)c(Cl)c(Cl)c(Cl)c2C1 [Chlorisondamine diiodide]	-0.335 ± 0.23
C[C@@H](CN1CC(=O)NC(=O)C1)N1CC(=O)NC(=O)C1 [Dexrazoxane hydrochloride]	-3.85 ± 2.8
O=C1OC(OC(=O)c2cccnc2Nc2cccc(C(F)(F)F)c2)c2ccccc21 (stereo not drawn) [Talniflumate]	-8.31 ± 7.4
Nc1nc2c(cnn2CCc2ccccc2)c2nc(-c3ccco3)nn12	-7.24 ± 9.3

test system: mIMCD3; experiment: robust z score of cilia incidence (% cells with single cilium) vs plate controls; higher = more ciliated cells (rescue of cilia loss); settings: 10 µM; 48 h; siRNA: siRpgrip1l

SMILES	robust z score of cilia incidence
O=Nc1c(-c2c(O)[nH]c3ccccc23)[nH]c2ccccc12 [Indirubin-3'-oxime]	-120 ± 110
Nc1nc2ccc(OC(F)(F)F)cc2s1 [Riluzole hydrochloride]	-12.2 ± 0.97
CC(C)NCCN(C(C)C)S(=O)(=O)c1ccc(Cl)cc1Cl	-31.4 ± 3.1
Cc1ccccc1N1CCN(S(=O)(=O)C[C@]23CC[C@H](C[C@@H]2NC(=O)[C@@H](N)CCS(C)(=O)=O)C3(C)C)CC1 [L-368,899 hydrochloride]	-11.7 ± 3.5
CC1(CN2CCC(n3c(=O)[nH]c4ccccc43)CC2)OCc2ccccc2-n2cccc21 (stereo not drawn)	-23.4 ± 14
O=C1Nc2ccc(I)cc2/C1=C/c1cc(Br)c(O)c(Br)c1	-31.4 ± 16
CN1CCc2cc(Cl)c(O)cc2[C@@H](c2ccccc2)C1	-7.72 ± 2.6
Nc1ncnc2n[nH]c(Nc3ccc(F)cc3)c12	-5.29 ± 0.23
Cc1nn(-c2ccccc2)c(C)c1C=NN1CCN(Cc2ccccc2)CC1	-26.8 ± 18
O=C(Nc1ccc(C(F)(F)F)cn1)N1CCN(c2ncccc2C(F)(F)F)CC1	-4.91 ± 0.18
CCN(CC)CCCCNc1ncc2cc(-c3c(Cl)cccc3Cl)c(NC(=O)NC(C)(C)C)nc2n1	-41.7 ± 1.2
CCC(=O)NC[C@H](Cc1ccc(OCCc2nc(-c3ccccc3)oc2C)cc1)N/C(C)=C\C(=O)c1ccc(C(F)(F)F)cc1	-25.9 ± 16
OCCNCCCOc1cccc(Cl)c1Cl [2,3-DCPE hydrochloride]	-16.4 ± 11
CC[C@H](NC(=O)c1c(C)c(-c2ccccc2)nc2ccccc12)c1ccccc1	-15.5 ± 4.7
CCN(CC)CC1CCN(c2ncc3ncnc(Nc4ccc(F)c(Cl)c4)c3n2)CC1 [BIBU 1361 dihydrochloride]	-33.2 ± 17
COc1c(C)c2c(c(O)c1C/C=C(\C)CCC(=O)O)C(=O)OC2 [Mycophenolic acid]	-538 ± 300
COc1ccc(Cl)cc1C(=O)NCCc1ccc(S(=O)(=O)NC(=O)NC2CCCCC2)cc1 [Glibenclamide]	-6.18 ± 0.27
CCn1c(=O)[nH]c2ccccc21	-15.5 ± 2.1
COc1ccc2c(c1)c(CC(=O)O)c(C)n2C(=O)c1ccc(Cl)cc1 [Indomethacin]	-11.2 ± 6.5
COc1ccc(NS(=O)(=O)c2ccc(I)cc2)cc1N1CCN(C)CC1	-31.2 ± 26

SMILES	robust z score of cilia incidence
O=C(OCCN1CCOCC1)C1(c2ccccc2)CCCCC1 [PRE-084 hydrochloride]	-12.8 ± 2.4
O=C1C=CC(=O)C2=C1C1c3ccccc3C2c2ccccc21	-12.9 ± 9.3
CCCc1c(OCCCOc2ccc(OCC(=O)O)cc2)ccc(C(C)=O)c1O	-16.9 ± 3.6
Nc1nccc(-c2ccc3noc(-c4ccc(Cl)cc4)c3c2)n1 [PIM 1 Inhibitor 2]	-7.12 ± 0.93
c1ccc(-c2n[nH]c3c2oc2ccccc23)cc1	-19.7 ± 25
CCCCCCN(CCCCCC)C(=O)Cc1c(-c2ccc(Cl)cc2)[nH]c2ccc(Cl)cc12	-40.6 ± 1.6
Cc1nn(C)c2nc(NNC(=O)Nc3cc(Cl)nc(Cl)c3)cc(C(C)C)c12	-12.3 ± 4.1
Cc1cc(I)ccc1Nc1c(C(=O)NOCC2CC2)cc(F)c(F)c1F	-57.6 ± 8.6
CC1(C)O[C@@H]2[C@@H](CO[C@@]3(COS(N)(=O)=O)OC(C)(C)O[C@@H]23)O1 [Topiramate]	-5.43 ± 2.7
CC/C(=C(\c1ccccc1)c1ccc(OCCN(C)C)cc1)c1ccccc1 [Tamoxifen citrate]	-24.8 ± 11
CC(C)Oc1cccc(-n2c(CCc3c[nH]c4ccc(Br)cc34)nc3ccccc3c2=O)c1	-13.4 ± 1.5
COc1ccccc1N1CCN(CCN2C(=O)CC3(CCCC3)CC2=O)CC1 [BMY 7378 dihydrochloride]	-11.6 ± 5.1
CCCc1c(OCC(O)COc2ccc3c(=O)cc(C(=O)O)oc3c2CCC)ccc(C(C)=O)c1O (stereo not drawn)	-7.69 ± 5.5
CCC(NC(C)C)C(O)c1ccc(O)c2[nH]c(=O)ccc12 (stereo not drawn) [Procaterol hydrochloride]	-15 ± 0.78
O=C(O)CCc1ccc(NCc2cccc(Oc3ccccc3)c2)cc1	-20.9 ± 4
C[N+](C)(C)CC[N+]1(C)Cc2c(Cl)c(Cl)c(Cl)c(Cl)c2C1 [Chlorisondamine diiodide]	-8.28 ± 5.3
C[C@@H](CN1CC(=O)NC(=O)C1)N1CC(=O)NC(=O)C1 [Dexrazoxane hydrochloride]	-8.96 ± 2.6
O=C1OC(OC(=O)c2cccnc2Nc2cccc(C(F)(F)F)c2)c2ccccc21 (stereo not drawn) [Talniflumate]	-20.6 ± 5.1
Nc1nc2c(cnn2CCc2ccccc2)c2nc(-c3ccco3)nn12	-20.8 ± 15
